Measured values: patent US20240109936A1 (University of Florida Research Foundation, Incorporated, priority 2020, published 2024)
The same purity stands for every peptide and may come from a single statement. [ ]: non-standard residue; d: D form. The star is where a group is joined. dPhe(4-NO2) = N[C@H](Cc1ccc([N+](=O)[O-])cc1)C(=O)O; dPhe(3-CF3) = N[C@H](Cc1cccc(C(F)(F)F)c1)C(=O)O; dPhe(4-CF3) = N[C@H](Cc1ccc(C(F)(F)F)cc1)C(=O)O; dPhe(2-CF3) = N[C@H](Cc1ccccc1C(F)(F)F)C(=O)O; dPhe(4-NH2) = Nc1ccc(C[C@@H](N)C(=O)O)cc1; dPhe(3-Cl) = N[C@H](Cc1cccc(Cl)c1)C(=O)O; dPhe(4-Br) = N[C@H](Cc1ccc(Br)cc1)C(=O)O; dPhe(4-Cl) = N[C@H](Cc1ccc(Cl)cc1)C(=O)O; Phe(3-F) = N[C@@H](Cc1cccc(F)c1)C(=O)O; Phe(4-F) = N[C@@H](Cc1ccc(F)cc1)C(=O)O; dPhe(2-Br) = N[C@H](Cc1ccccc1Br)C(=O)O; dPhe(2-Cl) = N[C@H](Cc1ccccc1Cl)C(=O)O; dPhe(3-F) = N[C@H](Cc1cccc(F)c1)C(=O)O; dPhe(4-F) = N[C@H](Cc1ccc(F)cc1)C(=O)O; dPhe(4-I) = N[C@H](Cc1ccc(I)cc1)C(=O)O; dPhe(2-F) = N[C@H](Cc1ccccc1F)C(=O)O; Cha = N[C@@H](CC1CCCCC1)C(=O)O; dCha = N[C@H](CC1CCCCC1)C(=O)O; tBu = CC(C)(C)*

Assay: general procedure: Fmoc solid-phase peptide synthesis; 2-chlorotrityl chloride resin; PyBOP/HOBt/DIEA
Details: whole synthesis, UPLC, Waters Acquity BEH C18, two solvent systems (MeCN/0.1% TFA and MeOH/0.1% TFA)

Substance	final HPLC purity
cyclo(F[dP]F[dCha])	>99%
cyclo(F[dP]F[dL])	>99%
cyclo(F[dP]F[dPhe(2-Br)])	>99%
cyclo(F[dP]F[dPhe(2-CF3)])	>99%
cyclo(F[dP]F[dPhe(2-Cl)])	>99%
cyclo(F[dP]F[dPhe(2-F)])	>99%
cyclo(F[dP]F[dPhe(3-CF3)])	>99%
cyclo(F[dP]F[dPhe(3-Cl)])	>99%
cyclo(F[dP]F[dPhe(3-F)])	>99%
cyclo(F[dP]F[dPhe(4-Br)])	>99%
cyclo(F[dP]F[dPhe(4-CF3)])	>99%
cyclo(F[dP]F[dPhe(4-Cl)])	>99%
cyclo(F[dP]F[dPhe(4-F)])	>99%
cyclo(F[dP]F[dPhe(4-I)])	>99%
cyclo(F[dP]F[dPhe(4-NH2)])	>99%
cyclo(F[dP]F[dPhe(4-NO2)])	>99%
cyclo(F[dP]F[dQ])	>99%
cyclo(F[dP]Y(tBu)[dW])	>99%
cyclo(F[dP]Y[dF])	>99%
cyclo(F[dP]Y[dW])	>99%

Substance	final HPLC purity
cyclo(F[dP][Cha][dF])	>99%
cyclo(F[dP][Cha][dW])	>99%
cyclo(F[dP][Phe(3-F)][dF])	>99%
cyclo(F[dP][Phe(3-F)][dW])	>99%
cyclo(F[dP][Phe(4-F)][dF])	>99%
cyclo(F[dP][Phe(4-F)][dW])	>99%
cyclo[3′-Pal-D-Pro-Phe-D-Cha]	>99%
cyclo[3′-Pal-D-Pro-Phe-D-Phe(2-Cl)]	>99%
cyclo[3′-Pal-D-Pro-Phe-D-Phe(2-F)]	>99%
cyclo[3′-Pal-D-Pro-Phe-D-Phe(3-Cl)]	>99%
cyclo[3′-Pal-D-Pro-Phe-D-Phe(3-F)]	>99%
cyclo[3′-Pal-D-Pro-Phe-D-Phe(4-Cl)]	>99%
cyclo[3′-Pal-D-Pro-Phe-D-Phe(4-F)]	>99%
cyclo[Phe(4-NH2CH2)-D-Pro-Phe-D-Trp]	>99%
cyclo[Phe-D-Pro-Phe(2-NH2CO)-D-Trp]	>99%
cyclo[Phe-D-Pro-Phe(3-NH2CO)-D-Trp]	>99%
cyclo[Phe-D-Pro-Phe(4-MeO)-D-Phe]	>99%
cyclo[Phe-D-Pro-Phe(4-MeO)-D-Trp]	>99%
cyclo[Phe-D-Pro-Phe(4-NH2CH2)-D-Phe]	>99%
cyclo[Phe-D-Pro-Phe(4-NH2CH2)-D-Trp]	>99%

Substance	final HPLC purity
cyclo[Phe-D-Pro-Phe(4-NH2CO)-D-Trp]	>99%
cyclo[Phe-D-Pro-Phe-D-Phe(2,4,5-tri-F)]	>99%
cyclo[Phe-D-Pro-Phe-D-Phe(2,4-di-Cl)]	>99%
cyclo[Phe-D-Pro-Phe-D-Phe(2-CH3)]	>99%
cyclo[Phe-D-Pro-Phe-D-Phe(2-NH2CH2)]	>99%
cyclo[Phe-D-Pro-Phe-D-Phe(2-NH2CO)]	>99%
cyclo[Phe-D-Pro-Phe-D-Phe(3,4,5-tri-F)]	>99%
cyclo[Phe-D-Pro-Phe-D-Phe(3,4-di-Cl)]	>99%
cyclo[Phe-D-Pro-Phe-D-Phe(3,4-di-F)]	>99%
cyclo[Phe-D-Pro-Phe-D-Phe(3,5-di-F)]	>99%
cyclo[Phe-D-Pro-Phe-D-Phe(3-CH3)]	>99%
cyclo[Phe-D-Pro-Phe-D-Phe(3-NH2CO)]	>99%
cyclo[Phe-D-Pro-Phe-D-Phe(4-CH3)]	>99%
cyclo[Phe-D-Pro-Phe-D-Phe(4-MeO)]	>99%
cyclo[Phe-D-Pro-Phe-D-Phe(4-NH2CH2)]	>99%
cyclo[Phe-D-Pro-Phe-D-Phe(4-NH2CO)]	>99%
cyclo[Phe-D-Pro-Phe-D-Phe(penta-F)]	>99%
cyclo[Phe-D-Pro-Phe-D-Trp(N-CHO)]	>99%
cyclo[Phe-D-Pro-Phe-D-Trp(N-Me)]	>99%
